Test results reported in patent US5648211.
For some of these results: Where a protein sequence is shown, tags need not be part of it. For some of these results: For at least one entry, the source does not settle the construct or the ends of the probe.

Tests used:
Test in all cases: enzyme reaction in vitro
BstXI = details: PS at T (one strand, hemimodified); unmodified strand nicked; label: 32P 5' end
BsmI = molecular target: T1, BsmI (UniProt Q8RLN4); details: label: 32P 5' end
T1 sequence (looked up, limits assumed): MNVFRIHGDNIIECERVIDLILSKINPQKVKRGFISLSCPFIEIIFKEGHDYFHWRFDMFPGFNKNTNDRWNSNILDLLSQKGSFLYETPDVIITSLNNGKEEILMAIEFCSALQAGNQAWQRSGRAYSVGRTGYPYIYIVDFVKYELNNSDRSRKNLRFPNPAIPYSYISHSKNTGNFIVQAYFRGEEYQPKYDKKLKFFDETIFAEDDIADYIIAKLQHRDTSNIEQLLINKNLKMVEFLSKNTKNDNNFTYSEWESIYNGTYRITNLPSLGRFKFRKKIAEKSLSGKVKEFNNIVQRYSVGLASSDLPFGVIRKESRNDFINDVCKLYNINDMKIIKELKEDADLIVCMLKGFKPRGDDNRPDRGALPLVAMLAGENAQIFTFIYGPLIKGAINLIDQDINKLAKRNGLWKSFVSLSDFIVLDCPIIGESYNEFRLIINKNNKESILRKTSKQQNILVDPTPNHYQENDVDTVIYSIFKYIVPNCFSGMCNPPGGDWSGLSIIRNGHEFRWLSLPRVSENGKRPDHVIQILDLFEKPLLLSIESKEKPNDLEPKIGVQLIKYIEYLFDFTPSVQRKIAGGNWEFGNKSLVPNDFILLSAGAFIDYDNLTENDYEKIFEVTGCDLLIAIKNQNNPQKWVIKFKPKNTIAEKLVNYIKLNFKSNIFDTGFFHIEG

BsmAI = molecular target: T2, BsmAI (UniProt Q6UQ64); details: unmodified strand nicked, label: 32P 5' end
T2 sequence (looked up, limits assumed): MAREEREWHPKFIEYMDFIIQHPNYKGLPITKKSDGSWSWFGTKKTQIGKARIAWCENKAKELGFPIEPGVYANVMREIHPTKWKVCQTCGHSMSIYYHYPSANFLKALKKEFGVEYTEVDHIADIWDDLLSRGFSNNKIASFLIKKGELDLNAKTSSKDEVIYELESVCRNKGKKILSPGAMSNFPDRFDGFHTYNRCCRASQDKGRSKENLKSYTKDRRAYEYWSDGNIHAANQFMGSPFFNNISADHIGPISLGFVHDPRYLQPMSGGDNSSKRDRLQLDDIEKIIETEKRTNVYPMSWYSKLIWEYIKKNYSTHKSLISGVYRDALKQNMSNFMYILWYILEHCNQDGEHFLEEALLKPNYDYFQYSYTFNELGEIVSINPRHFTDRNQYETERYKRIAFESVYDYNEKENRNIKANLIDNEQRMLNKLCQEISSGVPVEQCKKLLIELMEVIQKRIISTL

BstNI = details: PS at A and C (one strand, hemimodified); unmodified strand nicked; label: 32P 5' end
BstOI = details: PS at A and C (one strand, hemimodified); unmodified strand nicked; label: 32P 5' end
AccI = details: PS at C (one strand, hemimodified); site 17-22; unmodified strand nicked; poor stability at 50-65 C; label: 32P 5' end
BslI = details: PS at C (one strand, hemimodified); site 7-17; unmodified strand nicked; label: 32P 5' end
MwoI = molecular target: T3, MwoI (UniProt O59646); details: PS at G and T (one strand, hemimodified); unmodified strand nicked; no product in linear SDA; label: 32P 5' end
T3 sequence (looked up, limits assumed): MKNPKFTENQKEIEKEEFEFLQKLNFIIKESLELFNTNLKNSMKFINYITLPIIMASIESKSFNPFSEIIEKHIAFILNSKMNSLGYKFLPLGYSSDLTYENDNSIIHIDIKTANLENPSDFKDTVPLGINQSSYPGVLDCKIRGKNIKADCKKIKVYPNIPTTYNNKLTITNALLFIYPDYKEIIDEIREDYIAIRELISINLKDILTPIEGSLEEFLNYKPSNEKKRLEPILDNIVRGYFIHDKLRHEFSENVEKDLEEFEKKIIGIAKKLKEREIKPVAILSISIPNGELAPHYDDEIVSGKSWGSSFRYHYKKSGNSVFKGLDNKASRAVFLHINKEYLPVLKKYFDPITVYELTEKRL

BsrI = details: PS at A (one strand, hemimodified); unmodified strand nicked; label: 32P 5' end
BsrDI = details: PS at T (one strand, hemimodified); unmodified strand nicked; label: 32P 5' end
BsoBI (Bacillus sp.) = molecular target: T4, BsoBI (Bacillus sp.) (UniProt P70985); details: protein details: New England BioLabs
T4 sequence (looked up, limits assumed): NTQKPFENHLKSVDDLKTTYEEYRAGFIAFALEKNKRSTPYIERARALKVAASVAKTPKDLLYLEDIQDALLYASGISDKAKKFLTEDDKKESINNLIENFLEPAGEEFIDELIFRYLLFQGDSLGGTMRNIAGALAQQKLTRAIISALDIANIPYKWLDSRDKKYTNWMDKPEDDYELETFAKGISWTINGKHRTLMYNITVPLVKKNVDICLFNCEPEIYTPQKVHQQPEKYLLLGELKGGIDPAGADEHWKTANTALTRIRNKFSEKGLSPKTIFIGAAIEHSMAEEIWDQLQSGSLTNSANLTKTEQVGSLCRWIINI

[1] = PS at C (one strand, hemimodified), unmodified strand nicked, label: 32P 5' end

Sequence: CCGGAATTCGAATGCCAAAAGACTGGGTCTCCAGGAACCAACTCGGCCGGATCCGC (double strand) [TP-1 duplex, TTPalphaS]
- activity on this sequence (BstXI): active

Sequence: CCGGAATTCGAATGCCAAAAGACTGGGTCTCCAGGAACCAACTCGGCCGGATCCGC (double strand) [TP-1 duplex, dCTPalphaS]
- activity on this sequence (BsmI; PS at C (one strand, hemimodified), modified strand nicked, unmodified strand protected): active

Sequence: CCGGAATTCGAATGCCAAAAGACTGGGTCTCCAGGAACCAACTCGGCCGGATCCGC (double strand) [TP-1 duplex, dGTPalphaS + TTPalphaS]
- activity on this sequence (BsmAI; PS at G and T (one strand, hemimodified)): active

Sequence: CCGGAATTCTGGTTCCTGGAGACCCAGTCTTTTGGCATTCACTCGGCCGGATCCGC (double strand) [TP-1C duplex, dATPalphaS + dCTPalphaS]
- activity on this sequence (BstNI): active
- activity on this sequence (BstOI): active

Sequence: CCGGAATTCTGGTTCCTGGAGACCCAGTCTTTTGGCATTCACTCGGCCGGATCCGC (double strand) [TP-1C duplex, dATPalphaS]
- activity on this sequence (BsmI; PS at A (one strand, hemimodified), modified strand protected, unmodified nicked): active

Sequence: GAGAATTCGTGGACTGCAGATGTCTCCAATCCCCCCTCACAACGTTCCAGTAACC (double strand) [SSP-BSMA duplex, dGTPalphaS]
- activity on this sequence (BsmAI; PS at G (one strand, hemimodified)): active

Sequence: GGAATTCCCGAGGAAGGTAGACGCAATGGCGGCACTCGGCCGGATCCGG (double strand) [TP-4 duplex, dCTPalphaS]
- activity on this sequence (AccI): active
- activity on this sequence (BslI): active

Sequence: GGAATTCCCGAGGAAGGTAGACGCAATGGCGGCACTCGGCCGGATCCGG (double strand) [TP-4 duplex, dGTPalphaS + TTPalphaS]
- activity on this sequence (MwoI): active

Sequence: GGAATTCCGTCCCAGTGATGAAGATCGCAGCGCCCGAGACTCGGCCGGATCCGC (double strand) [TP-3 duplex, dATPalphaS]
- activity on this sequence (BsrI): active

Sequence: GGAATTCGCAGCCATTGCGTCTACCAACCTCGGGACTCGGCCGGATCCGG (double strand) [TP-4C duplex, TTPalphaS]
- activity on this sequence (BsrDI): active

Sequence: GGAATTCGCAGCCATTGCGTCTACCAACCTCGGGACTCGGCCGGATCCGG (double strand) [TP-4C duplex, dCTPalphaS]
- activity on this sequence (BsoBI (Bacillus sp.); [1]): active

Sequence: GGATTCGCCTCCAGATCTGGTCCTCGGGTAGACCCGGAGCTGAATGAAGC / CCGGAGCTGAATGAAGCCATACCAAACGACGAGCGTGACACCACGATGCCTGCAGCAATGGCAACAACGT [BsoBI SDA target with primer XBsoB1-2 (filled in to 103 bp)]
- activity on this sequence (BsoBI (Bacillus sp.); PS at C in extended regions, 81-mer product detectable in about 6 min, 60 C, faster at 6 than 15 mM MgCl2, pH 8.3, label: 32P internal, only the site is given): active

Sequence: TACAATAGTCCCAATCTACCCGAGCTTACACGGAGGCATCAAGTG (double strand) [CDAva1S1 duplex, TTPalphaS]
- activity on this sequence (BsoBI (Bacillus sp.); PS at T (one strand, hemimodified), unmodified strand nicked, label: 32P 5' end): active

Sequence: TACAATAGTCCCAATCTACTCGGGCTTACACGGAGGCATCAAGTG (double strand) [CDAva2S1 duplex, dCTPalphaS]
- activity on this sequence (BsoBI (Bacillus sp.); [1]): active
